Some of the results follow. Repeats in this data set agree poorly, so a single value says little.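 Free-swimming zebrafish larvae were scored for O-bend response probability to dark flashes (naive: first five; training: remaining flashes of four 60-flash blocks; test: later 60-flash block) and for turning toward alternating leftward/rightward LED motion (OMR). Six treated larvae were compared with sixty 0.1% DMSO controls; |SSMD|≥2 defined a hit.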

Holding throughout (conditions): 10 µM; pre-incubation: 30-90 min
For assay [1], the system named is Danio rerio larvae (5 dpf, TLF). Briefly: OMR-Perf (SSMD vs DMSO vehicle); higher = higher than vehicle (e.g. higher dark-flash O-bend response probability, or better optomotor performance).
The test system is the same in assay [2]. Briefly: Prob-Test (SSMD vs DMSO vehicle); higher = higher than vehicle (e.g. higher dark-flash O-bend response probability, or better optomotor performance).
The test system is the same in assay [3]. Briefly: Prob-Naive (SSMD vs DMSO vehicle); higher = higher than vehicle (e.g. higher dark-flash O-bend response probability, or better optomotor performance).
Assay [4] has the same test system. The experiment in a line: Prob-Train (SSMD vs DMSO vehicle); higher = higher than vehicle (e.g. higher dark-flash O-bend response probability, or better optomotor performance).

For the compound `COc1ccc(-c2cc3c(C)nc(N)nc3n([C@H]3CC[C@H](OCCO)CC3)c2=O)cn1`, the OMR-Perf in assay [1] was -0.975. Further, in assay [2], the Prob-Test was -1.42. Also, the Prob-Naive in assay [3] was -0.489. In assay [4], the Prob-Train is -1.78.
The like results for `C[C@@H]1O[C@@H](O[C@@H]2[C@H](Oc3cc(O)c(C(=O)CCc4ccc(O)cc4)c(O)c3)O[C@H](CO)[C@@H](O)[C@@H]2O)[C@H](O)[C@H](O)[C@H]1O` [Naringin Dihydrochalcone] were, in that order, 0.0673, -0.044, -0.234 and -0.127.
In the case of `O=C(O)CCCN1CCC(O[C@@H](c2ccc(Cl)cc2)c2ccccn2)CC1.O=S(=O)(O)c1ccccc1` [Bepotastine Besilate], in assay [1], the OMR-Perf was -0.215. In assay [2], the Prob-Test is -0.405. In assay [3], the Prob-Naive was -0.156. For the same compound, the Prob-Train in assay [4] was -0.218.
For `CN(C)CC(=O)Nc1ccc2[nH]c(=O)c3ccccc3c2c1` the same measures were -0.634, -0.742, -0.0813 and -0.897.
In the case of `COc1ccc(CNc2nc(N3CCC[C@H]3CO)ncc2C(=O)NCc2ncccn2)cc1Cl` [Avanafil], in assay [1], the OMR-Perf turned out to be 0.855. Moreover, the Prob-Test in assay [2] was 0.24. Moreover, the Prob-Naive in assay [3] was -0.293. Besides, in assay [4], the Prob-Train was 0.426.
Consider `CCN(CC)CCCC(C)Nc1nc(C)cc(Nc2ccc3nc(C)cc(N)c3c2)n1.Cl.Cl.Cl` (centres undefined), for which the OMR-Perf in assay [1] is -0.164. This compound also showed a Prob-Test in assay [2] of 0.19. Besides, the Prob-Naive in assay [3] was -0.162. Besides, the Prob-Train in assay [4] was -0.537.
With `CC1(C)O[C@@H]2C[C@H]3[C@@H]4C[C@H](F)C5=CC(=O)C=C[C@]5(C)[C@]4(F)[C@H](O)C[C@]3(C)[C@@]2(C(=O)CO)O1` [Fluocinolone Acetonide], the OMR-Perf in assay [1] was -0.596. This compound returned a Prob-Test in assay [2] of 0.436. Moreover, in assay [3], the Prob-Naive is -0.189. For the same compound, the Prob-Train in assay [4] is -0.0911.
For `CS(=O)(=O)c1cccc(CNc2nc(Nc3ccc4c(c3)CCC(=O)N4)ncc2C(F)(F)F)c1` the same measures were -0.585, -0.615, -0.296 and -0.407.
The like results for `CCCNC(=O)NS(=O)(=O)c1ccc(Cl)cc1` [Chlorpropamide] were, in that order, -0.328, 0.671, 0.4 and 0.378.
Take `C[C@@H]1CN(c2c(F)c(F)c3c(=O)c(C(=O)O)cn(C4CC4)c3c2F)C[C@@H](C)N1` [Orbifloxacin]: the OMR-Perf in assay [1] is -0.251. This compound returned a Prob-Test in assay [2] of 0.0651. The compound further yielded a Prob-Naive in assay [3] of 0.298. This compound had a Prob-Train in assay [4] of 0.44.
In assay [1], `Nc1ccc(S(=O)(=O)Nc2ncccn2)cc1` [Sulfadiazine] registered an OMR-Perf of 0.3. In addition, the Prob-Test in assay [2] was found to be 0.0908. The compound further yielded a Prob-Naive in assay [3] of 0.549. Also, the Prob-Train in assay [4] amounted to 0.821.
In the case of `CN(C)C(=O)c1cc2cnc(Nc3ccc(N4CCNCC4)cn3)nc2n1C1CCCC1`, the OMR-Perf in assay [1] is -0.234. The Prob-Test in assay [2] is -0.196. This compound also registered a Prob-Naive in assay [3] of 0.515. In addition, the Prob-Train in assay [4] is -0.0494.
As for `CN(C)CCOc1ccc(-c2nc(-c3ccncc3)c(-c3ccc4c(c3)CC/C4=N/O)[nH]2)cc1`, in assay [1], the OMR-Perf was -0.145. This compound showed a Prob-Test in assay [2] of 0.215. The Prob-Naive in assay [3] was -0.169. Moreover, the Prob-Train in assay [4] was -0.0136.
Take `CC1(C)[C@@H](C(=O)O)N2C(=O)C[C@H]2S1(=O)=O` [Sulbactam]: in assay [1], the OMR-Perf is -0.355. In addition, the Prob-Test in assay [2] is -0.0276. Moreover, the Prob-Naive in assay [3] is -0.308. In assay [4], this compound returned a Prob-Train of 0.361.
`N[C@@]1(C(=O)O)CS(=O)(=O)[C@H]2[C@H](C(=O)O)[C@H]21`: in assay [1], the OMR-Perf stood at 0.305. In addition, the Prob-Test in assay [2] worked out at 0.0325. In addition, in assay [3], the Prob-Naive is -0.758. The Prob-Train in assay [4] was -0.342.
For `Cc1nc2c([nH]1)-c1ccccc1N(C(=O)c1ccc(NC(=O)c3ccccc3-c3ccccc3)cc1)CC2.Cl` [Conivaptan HCl] the same measures were -0.203, -0.316, 0.0956 and 0.0346.
For `CCN1CCN(Cc2ccc(Nc3ncc(F)c(-c4cc(F)c5nc(C)n(C(C)C)c5c4)n3)nc2)CC1.CS(=O)(=O)O`, the OMR-Perf in assay [1] is -0.454. This compound also returned a Prob-Test in assay [2] of 0.22. In assay [3], this compound came in with a Prob-Naive of 0.0692. Moreover, in assay [4], the Prob-Train was -0.205.
The like results for `CO[C@H]1/C=C/O[C@]2(C)Oc3c(C)c(O)c4c(O)c(c5c(nc6cc(C)ccn65)c4c3C2=O)NC(=O)/C(C)=C\C=C\[C@@H](C)[C@H](O)[C@H](C)[C@@H](O)[C@@H](C)[C@H](OC(C)=O)[C@@H]1C` [Rifaximin] were, in that order, 0.00472, -0.112, 0.493 and 0.113.
With `O=c1oc2c(O)c(O)cc3c(=O)oc4c(O)c(O)cc1c4c23` [Ellagic acid], the OMR-Perf in assay [1] is -0.689. For the same compound, in assay [2], the Prob-Test is -0.86. Besides, the Prob-Naive in assay [3] is 0.134. In assay [4], the Prob-Train is -0.443.
`CCCc1cc(C)[nH]c(=O)c1CNC(=O)c1cc(-c2ccnc(N3CCN(C)CC3)c2)cc2c1cnn2C(C)C`: in assay [1], the OMR-Perf was -0.491. Moreover, the Prob-Test in assay [2] was -0.474. This compound had a Prob-Naive in assay [3] of 0.146. The Prob-Train in assay [4] was -0.281.
For `CCNC(=O)Nc1ccc(-c2nc3c(c(N4CCOC[C@@H]4C)n2)CCN(C2COC2)C3)cc1` the same measures were 0.131, 0.172, 0.135 and 0.841.
The like results for `OCCn1cc(-c2cnc3nnn(Cc4ccc5ncccc5c4)c3n2)cn1` were, in that order, -0.307, 0.355, -0.115 and 0.347.
For `Cc1cc(C)c2c(c1)[C@@H](N(Cc1cc(C(F)(F)F)cc(C(F)(F)F)c1)c1nnn(C)n1)CCCN2C[C@H]1CC[C@H](C(=O)O)CC1`, the OMR-Perf in assay [1] is -0.262. Besides, the Prob-Test in assay [2] is -1.69. In assay [3], this compound yielded a Prob-Naive of 0.302. The Prob-Train in assay [4] is -0.952.
For `COc1c(C)c(C(=O)c2ccc(N)c(C(=O)[O][Na])c2)n2ccccc12` the same measures were -0.112, 0.171, 0.145 and 0.142.
`O=S(=O)(c1ccccc1)c1cnc2c(N3CCNCC3)cccc2c1` registered an OMR-Perf in assay [1] of 0.245. In addition, the Prob-Test in assay [2] was found to be 0.0598. In assay [3], the Prob-Naive amounted to 0. Further, the Prob-Train in assay [4] was determined as 0.635.
The like results for `COc1ccccc1N1CCN(CCN2C(=O)CC3(CCCC3)CC2=O)CC1.Cl.Cl` were, in that order, -0.98, -1.1, -0.835 and -0.885.
